Data as given in PubChem BioAssay AID1159584 (Peter MacCallum Cancer Centre, 2016)
Purpose: 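Genes whose loss is lethal only together with E-cadherin loss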 (primary screen). Cell system: human MCF10A breast epithelial cells, parental and CDH1-null. Reagents: siRNA against human genes. Read-out: 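ATP luminescence (CellTiter-Glo) viability per line relative to mean mock wells over all plates, and the ratio of CDH1-null to parental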. Reading the numbers: CDH1-null / parental viability ratio: higher = CDH1-null cells survive relatively better than parental.
This is a random part of about 18,000 reagents. Not all columns of the deposit are shown. Reagent sequences are not shown. Not stated in the record: the amount of reagent, the time to read-out.

For GIMAP2 (GTPase, IMAP family member 2), the values are CDH1-null / parental viability ratio 1.04.
With knock-down of ANG (angiogenin), the record shows CDH1-null / parental viability ratio 1.18.
After knock-down of ANAPC7 (anaphase promoting complex subunit 7), the record shows CDH1-null / parental viability ratio 0.95.
With knock-down of HPCAL4 (hippocalcin like 4) the results were CDH1-null / parental viability ratio 1.02.
OR5C1 (olfactory receptor family 5 subfamily C member 1) gave CDH1-null / parental viability ratio 1.03.
After knock-down of VARS1 (valyl-tRNA synthetase 1), the record shows CDH1-null / parental viability ratio 0.95.
TMEM105 (TMEM105 long non-coding RNA) gave CDH1-null / parental viability ratio 1.09.
Against PRCP (prolylcarboxypeptidase) the deposit lists CDH1-null / parental viability ratio 1.13.

2 of these entries in another layout.
gene,CDH1-null / parental viability ratio
HPCAL4 (hippocalcin like 4),1.02
OR5C1 (olfactory receptor family 5 subfamily C member 1),1.03

Further results follow:
Knock-down of LOC100288884 (retired record) came out at: CDH1-null / parental viability ratio 1.1.
Against MTFR2 (mitochondrial fission regulator 2) the deposit lists CDH1-null / parental viability ratio 1.38.
Knock-down of ODAD1 (outer dynein arm docking complex subunit 1) resulted in: CDH1-null / parental viability ratio 1.2.
SLC25A34 showed CDH1-null / parental viability ratio 1.19.
C1QTNF5 (C1q and TNF related 5) showed CDH1-null / parental viability ratio 0.88.
With knock-down of PDS5A (PDS5 cohesin associated factor A), the screen gave CDH1-null / parental viability ratio 0.89.
